The source of these data is PMC6627515.

By UniProt entry, the sequences of proteins in these tests, tags left out. Where a name states a change or a piece, a line headed by the entry shows the natural chain unless it says otherwise.
UniProt B7F1Z4: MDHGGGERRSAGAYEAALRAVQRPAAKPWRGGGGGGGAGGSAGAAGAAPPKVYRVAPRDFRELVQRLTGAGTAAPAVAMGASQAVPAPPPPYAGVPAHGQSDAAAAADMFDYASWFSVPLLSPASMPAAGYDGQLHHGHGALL

This assay concerns the target OsVQ13 green fluorescent protein (GFP) fusion protein (rice (Oryza sativa L.)) (UniProt B7F1Z4). Briefly: affinity purification with mass spectrometry; nuclear proteins of OsVQ13GFP-ox rice leaf blades incubated with magnetic bead-conjugated GFP-Trap overnight at 4 °C, washed five times; eluted proteins separated by SDS-PAGE, Oriole-stained bands identified by MALDI-TOF MS; five independent experiments; GFP-ox plants as negative control.

These are yes or no findings as the source states them, for the method shown. Binding seen in cells or lysates may run through a third protein. Here binding means that the protein was enriched with, or labelled near, the bait; the list need not be complete.

B1: NAC domain-containing protein 5 (OsNAC5) (protein, UniProt Q53NF7 1-329)
chain: MECGGALQLPPGFRFHPTDDELVMYYLCRKCGGLPLAAPVIAEVDLYKFNPWDLPERAMGGEKEWYFFSPRDRKYPNGQRPNRAAGTGYWKATGADKPVGSPRAVAIKKALVFYAGKPPKGVKTNWIMHEYRLADVDRSAAARKLSKSSHNALRLDDWVLCRIYNKKGVIERYDTVDAGEDVKPAAAAAAAKGGRIGGGGGAAAMKVELSDYGFYDQEPESEMLCFDRSGSADRDSMPRLHTDSSGSEHVLSPSPSPDDFPGGGDHDYAESQPSGGCGGWPGVDWAAVGDDGFVIDSSLFELPSPAAFSRAAGDGAAFGDMFTYLQKPF
Regarding B1, the binding entry is listed as “binds”.

B2: MADS-box transcription factor 2 (OsMADS2) (protein, UniProt Q40702 1-209)
chain: MGRGKIEIKRIENSTNRQVTFSKRRSGILKKAREISVLCDAEVGVVIFSSAGKLYDYCSPKTSLSRILEKYQTNSGKILWDEKHKSLSAEIDRIKKENDNMQIELRHLKGEDLNSLQPKELIMIEEALDNGIVNVNDKLMDHWERHVRTDKMLEDENKLLAFKLHQQDIALSGSMRDLELGYHPDRDFAAQMPITFRVQPSHPNLQENN
As to B2, the binding entry is reported as “binds”.
